Results published in article PMC4980336.
Results are given in words; binding and its absence hold for the method and conditions named. Some binding calls cover weakened binding; strength is not graded here.

Amino acid sequences for entries named in this document (tags omitted). A change or cut given only in a name is not applied to a line headed by its entry.
UniProt P35606: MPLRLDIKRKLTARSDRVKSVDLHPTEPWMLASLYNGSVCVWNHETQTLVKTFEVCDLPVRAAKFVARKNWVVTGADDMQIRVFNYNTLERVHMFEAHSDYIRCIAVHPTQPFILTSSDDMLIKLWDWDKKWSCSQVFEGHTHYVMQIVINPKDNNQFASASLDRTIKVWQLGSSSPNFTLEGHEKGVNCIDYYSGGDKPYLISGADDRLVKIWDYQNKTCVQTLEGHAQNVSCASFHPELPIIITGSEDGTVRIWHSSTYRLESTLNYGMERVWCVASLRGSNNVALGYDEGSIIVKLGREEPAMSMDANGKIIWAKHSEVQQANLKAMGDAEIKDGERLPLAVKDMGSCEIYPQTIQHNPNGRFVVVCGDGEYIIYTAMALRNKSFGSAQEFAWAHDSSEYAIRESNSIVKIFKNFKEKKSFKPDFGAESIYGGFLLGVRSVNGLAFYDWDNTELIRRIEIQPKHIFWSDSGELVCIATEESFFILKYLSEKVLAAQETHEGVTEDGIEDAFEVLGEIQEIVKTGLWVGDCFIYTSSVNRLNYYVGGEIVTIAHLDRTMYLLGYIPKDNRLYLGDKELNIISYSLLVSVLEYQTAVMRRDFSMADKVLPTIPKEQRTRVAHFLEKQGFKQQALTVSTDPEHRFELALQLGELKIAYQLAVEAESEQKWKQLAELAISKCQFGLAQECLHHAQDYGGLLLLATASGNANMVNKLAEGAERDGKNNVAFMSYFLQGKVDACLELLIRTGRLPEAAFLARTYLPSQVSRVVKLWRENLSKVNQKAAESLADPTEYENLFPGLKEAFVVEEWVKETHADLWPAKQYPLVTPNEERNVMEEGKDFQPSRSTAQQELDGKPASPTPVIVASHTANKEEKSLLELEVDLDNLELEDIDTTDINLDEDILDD
UniProt O14579: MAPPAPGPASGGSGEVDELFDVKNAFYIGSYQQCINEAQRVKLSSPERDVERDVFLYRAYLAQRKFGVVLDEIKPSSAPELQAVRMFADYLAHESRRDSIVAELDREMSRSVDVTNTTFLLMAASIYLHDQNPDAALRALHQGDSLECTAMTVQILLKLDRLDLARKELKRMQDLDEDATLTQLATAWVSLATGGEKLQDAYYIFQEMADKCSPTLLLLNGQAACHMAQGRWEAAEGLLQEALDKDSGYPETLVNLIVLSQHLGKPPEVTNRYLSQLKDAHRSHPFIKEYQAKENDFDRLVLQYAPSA
UniProt P53618: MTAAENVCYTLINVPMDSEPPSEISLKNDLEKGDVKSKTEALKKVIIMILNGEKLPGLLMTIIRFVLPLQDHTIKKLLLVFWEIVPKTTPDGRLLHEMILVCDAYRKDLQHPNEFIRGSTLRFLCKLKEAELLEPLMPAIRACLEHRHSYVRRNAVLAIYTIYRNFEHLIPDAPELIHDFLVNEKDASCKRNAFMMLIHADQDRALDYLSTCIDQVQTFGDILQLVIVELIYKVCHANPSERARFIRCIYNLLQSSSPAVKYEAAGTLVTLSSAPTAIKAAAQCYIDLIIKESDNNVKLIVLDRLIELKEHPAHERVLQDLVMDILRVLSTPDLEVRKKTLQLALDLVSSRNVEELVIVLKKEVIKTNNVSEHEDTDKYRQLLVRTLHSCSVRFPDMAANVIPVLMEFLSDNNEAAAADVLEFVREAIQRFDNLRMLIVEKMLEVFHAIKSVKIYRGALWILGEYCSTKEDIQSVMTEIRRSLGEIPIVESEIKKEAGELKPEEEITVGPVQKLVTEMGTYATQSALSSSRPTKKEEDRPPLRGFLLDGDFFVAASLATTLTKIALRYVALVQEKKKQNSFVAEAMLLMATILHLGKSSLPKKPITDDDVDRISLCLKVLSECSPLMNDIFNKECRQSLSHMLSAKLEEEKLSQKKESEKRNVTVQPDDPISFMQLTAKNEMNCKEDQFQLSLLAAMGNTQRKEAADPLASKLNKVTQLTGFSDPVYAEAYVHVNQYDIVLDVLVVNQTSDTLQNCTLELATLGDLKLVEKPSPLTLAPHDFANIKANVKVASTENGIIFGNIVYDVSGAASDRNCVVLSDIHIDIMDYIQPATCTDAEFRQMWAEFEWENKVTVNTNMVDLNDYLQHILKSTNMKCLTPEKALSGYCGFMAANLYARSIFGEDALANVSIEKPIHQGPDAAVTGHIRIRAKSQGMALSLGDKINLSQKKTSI

Key:
[1] = target: T1, B-subcomplex of recombinant human coatomer (α-, β′- and ε-COP) (human) (UniProt P53621+P35606+O14579); experiment: cross-linking; CXMS: about 12 μg purified COPI complex (co-expressed and purified as one complex) with BS3, DSS or Sulfo-GMBS, protein : cross-linker 1:8 or 1:4, one hour at room temperature; trypsin, LC-MS/MS, pLink; both purified
[2] = target: T1, B-subcomplex of recombinant human coatomer (α-, β′- and ε-COP) (human); experiment: negative-stain EM, single-particle reconstruction; soluble recombinant human coatomer, co-expressed and purified as one complex; 2% uranyl acetate; 19 Å overall, 18 Å and 20 Å for the two parts after focus refinement; model of membrane-bound coatomer (PDB 5A1U) fitted as a rigid body; both purified
[3] = target: T2, α-COP isoform 1 (subunit of recombinant human coatomer) (human) (UniProt P53621); experiment: cross-linking; CXMS: about 12 μg purified COPI complex (co-expressed and purified as one complex) with BS3, DSS or Sulfo-GMBS, protein : cross-linker 1:8 or 1:4, one hour at room temperature; trypsin, LC-MS/MS, pLink; both purified
T2 sequence: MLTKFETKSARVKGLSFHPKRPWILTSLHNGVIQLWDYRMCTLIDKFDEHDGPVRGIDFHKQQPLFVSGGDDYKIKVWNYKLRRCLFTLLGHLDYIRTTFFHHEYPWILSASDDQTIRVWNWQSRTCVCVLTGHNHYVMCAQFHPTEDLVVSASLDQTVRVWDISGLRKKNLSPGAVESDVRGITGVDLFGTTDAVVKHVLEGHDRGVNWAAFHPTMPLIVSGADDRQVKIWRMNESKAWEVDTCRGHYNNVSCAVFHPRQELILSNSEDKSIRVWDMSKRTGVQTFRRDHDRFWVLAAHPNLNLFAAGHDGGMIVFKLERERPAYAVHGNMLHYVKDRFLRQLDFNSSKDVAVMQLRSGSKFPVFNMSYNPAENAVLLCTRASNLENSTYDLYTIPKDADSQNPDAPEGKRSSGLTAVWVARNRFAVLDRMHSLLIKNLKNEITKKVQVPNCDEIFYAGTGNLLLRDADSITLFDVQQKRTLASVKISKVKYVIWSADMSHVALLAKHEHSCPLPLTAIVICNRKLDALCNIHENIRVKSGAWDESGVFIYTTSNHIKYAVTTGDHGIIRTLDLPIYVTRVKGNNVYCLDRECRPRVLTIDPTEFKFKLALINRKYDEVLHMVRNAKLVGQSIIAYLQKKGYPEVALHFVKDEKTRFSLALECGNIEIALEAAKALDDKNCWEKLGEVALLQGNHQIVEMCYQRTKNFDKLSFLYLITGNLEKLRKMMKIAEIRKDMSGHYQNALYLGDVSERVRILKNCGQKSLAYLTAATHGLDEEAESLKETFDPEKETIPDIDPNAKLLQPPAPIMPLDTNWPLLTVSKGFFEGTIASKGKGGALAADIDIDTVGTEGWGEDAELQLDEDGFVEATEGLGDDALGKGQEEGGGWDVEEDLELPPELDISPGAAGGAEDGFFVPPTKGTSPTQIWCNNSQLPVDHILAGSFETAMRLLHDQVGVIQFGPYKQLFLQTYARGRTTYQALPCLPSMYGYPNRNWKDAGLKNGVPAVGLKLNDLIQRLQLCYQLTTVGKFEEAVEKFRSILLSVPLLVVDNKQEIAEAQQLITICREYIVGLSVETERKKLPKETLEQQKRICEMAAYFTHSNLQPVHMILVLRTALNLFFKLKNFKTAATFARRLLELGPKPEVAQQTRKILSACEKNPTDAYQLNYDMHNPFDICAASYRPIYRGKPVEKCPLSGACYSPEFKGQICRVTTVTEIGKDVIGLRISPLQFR

Substance	binding [1]	binding [2]	binding [3]
F-subcomplex of recombinant human coatomer (β-, γ-, δ- and ζ-COP) (from UniProt P53618 1-953; Q9Y678 1-874; P48444-1 1-511; P61923-1 1-177)	binds	binds	–
ε-COP isoform 1 (subunit of recombinant human coatomer) (from UniProt O14579-1 1-308)	–	–	binds
